Data source: PubChem BioAssay AID1259308 (NCATS, 2017)
Purpose: 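Knock-downs that increase output of a recombinant reporter protein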 (primary screen). Cell system: human HEK293 embryonic kidney cells stably expressing firefly luciferase (HEK-CMV-Luc2-Hygro). Knock-down reagent: single siRNA against human genes, 0.8 pmol siRNA per well. Timing: 72 h. Read-out: 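Reporter luminescence and viable-cell signal on separate replicate plates, given as percent of non-targeting control and median/MAD z-scores, plus per-cell luciferase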. Scale: total luciferase, z-score: higher = more reporter protein produced. Active means: 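Active when the median/MAD z-score for overall luciferase is greater than 3; a gene was taken forward for validation with new siRNAs if at least two of its three siRNAs passed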. Calls: active = raised luciferase; inactive = no rise.
Shown is a random part of about 59,000 deposited reagents. In the full data, about 1,510 (2.6%) are marked active. 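Calls use total luciferase alone and ignore viability, so some active siRNAs may act by altering cell number.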 The numbers tell different reagents against one gene apart. Further read-outs or replicates are left out here.

Silencing of CCDC121 #1 gave: total luciferase, z-score 0.3; inactive.
Depletion of CCDC121 #2 came out at: total luciferase, z-score 1.06; inactive.
CCDC121 #3 showed total luciferase, z-score 0.311; inactive.
Silencing of DMBT1L1 #1 resulted in: total luciferase, z-score 1.24; inactive.
Depletion of DMBT1L1 #2 resulted in: total luciferase, z-score 1.36; inactive.
For DMBT1L1 #3 the deposit lists total luciferase, z-score -1.05; inactive.
After knock-down of WIPI1 #1 the results were total luciferase, z-score 0.274; inactive.
Against WIPI1 #2 the deposit lists total luciferase, z-score -1.17; inactive.
For WIPI1 #3, the values are total luciferase, z-score -0.266; inactive.
IRS1 #1 gave total luciferase, z-score 0.796; inactive.
For IRS1 #2, the values are total luciferase, z-score -0.0741; inactive.
Knock-down of IRS1 #3 resulted in: total luciferase, z-score 1.2; inactive.
ACP2 #1 showed total luciferase, z-score 2.07; inactive.
With knock-down of ACP2 #2, the record shows total luciferase, z-score -0.317; inactive.
Silencing of ACP2 #3 gave: total luciferase, z-score 0.979; inactive.
With knock-down of EMILIN2 #1 the results were total luciferase, z-score -1.24; inactive.
Against EMILIN2 #2, the values are total luciferase, z-score -1.99; inactive.
EMILIN2 #3 showed total luciferase, z-score -0.678; inactive.
Against ZNF706 #1 the deposit lists total luciferase, z-score -0.28; inactive.
With knock-down of ZNF706 #2, the record shows total luciferase, z-score 2.93; inactive.
Knock-down of ZNF706 #3 resulted in: total luciferase, z-score -0.0874; inactive.
Silencing of BET1L #1 came out at: total luciferase, z-score -0.694; inactive.
For BET1L #2, the entry reads total luciferase, z-score 1.31; inactive.
With knock-down of BET1L #3 the results were total luciferase, z-score -0.58; inactive.
Depletion of OMG #1 gave: total luciferase, z-score 0.922; inactive.
OMG #2 showed total luciferase, z-score 0.138; inactive.
Depletion of OMG #3 gave: total luciferase, z-score -1.38; inactive.
With knock-down of TBATA #1, the screen gave total luciferase, z-score 0.917; inactive.
Depletion of TBATA #2 gave: total luciferase, z-score 0.939; inactive.
TBATA #3 gave total luciferase, z-score -0.0796; inactive.
SERPINA1 #1 scored total luciferase, z-score -0.678; inactive.
Against SERPINA1 #2, the values are total luciferase, z-score 1.22; inactive.
SERPINA1 #3 gave total luciferase, z-score -0.617; inactive.

Laid out differently: 3 of the entries above
Target gene,siRNA no.,"total luciferase, z-score",Outcome
CCDC121,2,1.06,inactive
CCDC121,3,0.311,inactive
DMBT1L1,1,1.24,inactive
